# This is one part of the list. Many values rest on one well or one pass, so single values are uncertain.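 The apoptosis fraction was the count of cleaved-PARP antibody-stained nuclei relative to all DNA-stained nuclei, imaged in 1,536-well plates. Screening doses were set so most cells survived, and baseline and induced cleaved-PARP levels vary greatly across cell lines.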
# Legend:
# Assay in all cases: cleaved PARP positive nuclei fraction relative to DMSO control; melanoma cells; higher = more apoptosis
# Settings in all cases: library dose: low library concentration; 72 h
# 501Mel = tested on: 501Mel
# A101D = tested on: A101D
# A2058 = tested on: A2058
# A375 = tested on: A375
# C32 = tested on: C32
# CBRC013 = tested on: CBRC013 (line from a melanoma biopsy)
# CBRC014 = tested on: CBRC014 (line from a melanoma biopsy)
# CBRC016 = tested on: CBRC016 (line from a melanoma biopsy)
# CBRC017 = tested on: CBRC017 (line from a melanoma biopsy)
# CBRC034 = tested on: CBRC034 (line from a melanoma biopsy)
# COLO792 = tested on: COLO792
# COLO800 = tested on: COLO800
# COLO829 = tested on: COLO829
# G361 = tested on: G361
# IPC-298 = tested on: IPC-298
# IST-MEL1 = tested on: IST-MEL1
# LB2518-MEL = tested on: LB2518-MEL
# LOXIMVI = tested on: LOXIMVI
# CBRC008 = tested on: CBRC008 (line from a melanoma biopsy)
Structure (SMILES),cleaved PARP positive nuclei fraction (501Mel),cleaved PARP positive nuclei fraction (A101D),cleaved PARP positive nuclei fraction (A2058),cleaved PARP positive nuclei fraction (A375),cleaved PARP positive nuclei fraction (C32),cleaved PARP positive nuclei fraction (CBRC013),cleaved PARP positive nuclei fraction (CBRC014),cleaved PARP positive nuclei fraction (CBRC016),cleaved PARP positive nuclei fraction (CBRC017),cleaved PARP positive nuclei fraction (CBRC034),cleaved PARP positive nuclei fraction (COLO792),cleaved PARP positive nuclei fraction (COLO800),cleaved PARP positive nuclei fraction (COLO829),cleaved PARP positive nuclei fraction (G361),cleaved PARP positive nuclei fraction (IPC-298),cleaved PARP positive nuclei fraction (IST-MEL1),cleaved PARP positive nuclei fraction (LB2518-MEL),cleaved PARP positive nuclei fraction (LOXIMVI),cleaved PARP positive nuclei fraction (CBRC008)
"Cc1nc(Nc2ncc(C(=O)Nc3c(C)cccc3Cl)s2)cc(N2CCN(CCO)CC2)n1 [dasatanib] + Oc1cc(-c2nc(-c3ccccc3)[nH]c2-c2ccncc2)ccc1Cl [L779450] (first compound 0.004 µM, partner dose 0.2 µM)",106%,75%,161%,382%,105%,491%,118%,106%,186%,106%,73.8%,132%,39.2%,110%,98.5%,158%,115%,48.4%,–
"COCC[n+]1c2c(n(Cc3cnccn3)c1C)C(=O)c1ccccc1C2=O + COc1cc2ncnc(Nc3ccc(Oc4ccccc4)cc3)c2cc1OC [SrcI1] (first compound 0.0004 µM, partner dose 2 µM)",38.9%,200%,101%,549%,89.4%,101%,97.9%,76.8%,69.2%,80%,21.6%,81.4%,81.9%,81.1%,104%,212%,167%,30.6%,–
"C=CCNC1=C2C[C@@H](C)C[C@H](OC)[C@H](O)[C@@H](C)/C=C(\C)[C@H](OC(N)=O)[C@@H](OC)/C=C\C=C(/C)C(=O)NC(=CC1=O)C2=O [Tanespimycin] + Cc1cc([N+](=O)[O-])ccc1NS(=O)(=O)c1cc(Cl)ccc1Cl [FH535] (first compound 0.002 µM, partner dose 1 µM)",57.9%,34.2%,42.7%,–,525%,–,156%,433%,186%,–,52%,175%,91.3%,81.2%,159%,67.8%,127%,87.7%,532%
"Clc1ccc(Nc2nnc(Cc3ccncc3)c3ccccc23)cc1 [vatalanib] + COc1cc2ncnc(Nc3ccc(Oc4ccccc4)cc3)c2cc1OC [SrcI1] (first compound 2 µM, partner dose 2 µM)",88.6%,155%,15.2%,–,83.4%,–,96.8%,49.1%,107%,–,125%,55.3%,68%,128%,43.2%,70.6%,71.9%,13.2%,60.7%
"Clc1ccc(Nc2nnc(Cc3ccncc3)c3ccccc23)cc1 [vatalanib] + COC(=O)c1sccc1S(=O)(=O)Nc1ccc(Nc2ccccc2)cc1OC [GSK0660] (first compound 2 µM, partner dose 1 µM)",58.1%,9.12%,23.5%,–,59.8%,–,110%,91.9%,78.8%,–,145%,155%,251%,51.3%,53.7%,84.7%,127%,126%,177%
"Clc1ccc(Nc2nnc(Cc3ccncc3)c3ccccc23)cc1 [vatalanib] + CC(C)CCN1c2nc(Nc3cc(F)c(O)c(F)c3)ncc2N(C)C(=O)C1C [BID1870] (first compound 2 µM, partner dose 0.2 µM)",155%,143%,78.4%,–,151%,–,110%,147%,91%,–,125%,93.8%,66.9%,26.9%,84.3%,129%,77.7%,95%,56.8%
"Clc1ccc(Nc2nnc(Cc3ccncc3)c3ccccc23)cc1 [vatalanib] + COc1ccc2c(c1)CCC1C2CCC2(C)C(NCCCCCCN3C(=O)C=CC3=O)CCC12 [U73122] (first compound 2 µM, partner dose 0.4 µM)",76.2%,67.5%,291%,–,171%,–,125%,108%,120%,–,77.9%,199%,178%,219%,157%,81.7%,77.9%,256%,191%
"OCc1c[nH]c2ccccc12 [Indole-3-carbinol] + COc1ccc(COc2ccc(Cc3cnc(N)nc3N)cc2OC)cc1 [GW2580] (first compound 0.8 µM, partner dose 1 µM)",67.4%,67.2%,79.5%,–,151%,–,103%,82%,86.8%,–,135%,109%,141%,103%,44.9%,110%,37.4%,80.7%,244%
"CC(=O)c1c(C)c2cnc(Nc3ccc(N4CCNCC4)cn3)nc2n(C2CCCC2)c1=O [palbociclib] + O=C(Nc1ccccc1)c1cc([N+](=O)[O-])ccc1Cl [GW9662] (first compound 0.04 µM, partner dose 2 µM)",123%,24.1%,87.2%,–,110%,–,105%,47.1%,63.8%,–,139%,67.3%,156%,124%,103%,161%,81.8%,96.3%,67.1%
"C=CCNC1=C2C[C@@H](C)C[C@H](OC)[C@H](O)[C@@H](C)/C=C(\C)[C@H](OC(N)=O)[C@@H](OC)/C=C\C=C(/C)C(=O)NC(=CC1=O)C2=O [Tanespimycin] + COc1ccc(COc2ccc(Cc3cnc(N)nc3N)cc2OC)cc1 [GW2580] (first compound 0.002 µM, partner dose 1 µM)",97.4%,23.1%,134%,–,202%,–,114%,106%,70.7%,–,140%,124%,253%,167%,152%,29.2%,149%,42.7%,51.9%
"C=CCNC1=C2C[C@@H](C)C[C@H](OC)[C@H](O)[C@@H](C)/C=C(\C)[C@H](OC(N)=O)[C@@H](OC)/C=C\C=C(/C)C(=O)NC(=CC1=O)C2=O [Tanespimycin] + CC(C)CCN1c2nc(Nc3cc(F)c(O)c(F)c3)ncc2N(C)C(=O)C1C [BID1870] (first compound 0.002 µM, partner dose 0.2 µM)",80.6%,37.5%,15.3%,–,66%,–,123%,108%,80.3%,–,76.6%,509%,32.8%,118%,206%,114%,34.8%,129%,166%
"C=CCNC1=C2C[C@@H](C)C[C@H](OC)[C@H](O)[C@@H](C)/C=C(\C)[C@H](OC(N)=O)[C@@H](OC)/C=C\C=C(/C)C(=O)NC(=CC1=O)C2=O [Tanespimycin] + O=S(=O)(c1ccccc1)N(CC(F)(F)F)c1ccc(C(O)(C(F)(F)F)C(F)(F)F)cc1 [T0901317] (first compound 0.002 µM, partner dose 1.4 µM)",185%,75.5%,98.2%,–,101%,–,114%,34%,141%,–,68.3%,41.7%,119%,90.9%,146%,28.1%,84.9%,231%,332%
"OCc1c[nH]c2ccccc12 [Indole-3-carbinol] + O=S(=O)(c1ccccc1)N(CC(F)(F)F)c1ccc(C(O)(C(F)(F)F)C(F)(F)F)cc1 [T0901317] (first compound 0.8 µM, partner dose 1.4 µM)",77.4%,40.3%,59.4%,–,42.5%,–,100%,76.3%,91.8%,–,212%,134%,149%,105%,47.3%,106%,169%,131%,164%
"CC(=O)c1c(C)c2cnc(Nc3ccc(N4CCNCC4)cn3)nc2n(C2CCCC2)c1=O [palbociclib] + c1cc(-c2cnn3cc(-c4ccc(OCCN5CCCCC5)cc4)cnc23)ccn1 [Dorsomorphin] (first compound 0.04 µM, partner dose 0.4 µM)",105%,82.5%,43.6%,–,312%,–,134%,14.1%,97.9%,–,63.4%,82.3%,95.5%,226%,124%,78.3%,166%,60.9%,36.3%
"CC(=O)c1c(C)c2cnc(Nc3ccc(N4CCNCC4)cn3)nc2n(C2CCCC2)c1=O [palbociclib] + CCc1ccc(CCOc2ccc(CC3SC(=O)NC3=O)cc2)nc1 [pioglitazone] (first compound 0.04 µM, partner dose 2 µM)",94.4%,26.4%,37.1%,–,51.2%,–,113%,41.8%,117%,–,149%,26.1%,92.4%,140%,104%,61.9%,48.8%,87.3%,117%
